From article PMC4219662
Results are given in words; binding and its absence hold for the method and conditions named. In cells and extracts the contact can be indirect. A result given as binding can be weak or reduced; the word gives no strength.

Protein sequences, listed by entry. Tags and fused reporters are not part of them. Lines headed by an entry give the natural chain unless they say otherwise; changes in a name come on top.
UniProt Q7KN62: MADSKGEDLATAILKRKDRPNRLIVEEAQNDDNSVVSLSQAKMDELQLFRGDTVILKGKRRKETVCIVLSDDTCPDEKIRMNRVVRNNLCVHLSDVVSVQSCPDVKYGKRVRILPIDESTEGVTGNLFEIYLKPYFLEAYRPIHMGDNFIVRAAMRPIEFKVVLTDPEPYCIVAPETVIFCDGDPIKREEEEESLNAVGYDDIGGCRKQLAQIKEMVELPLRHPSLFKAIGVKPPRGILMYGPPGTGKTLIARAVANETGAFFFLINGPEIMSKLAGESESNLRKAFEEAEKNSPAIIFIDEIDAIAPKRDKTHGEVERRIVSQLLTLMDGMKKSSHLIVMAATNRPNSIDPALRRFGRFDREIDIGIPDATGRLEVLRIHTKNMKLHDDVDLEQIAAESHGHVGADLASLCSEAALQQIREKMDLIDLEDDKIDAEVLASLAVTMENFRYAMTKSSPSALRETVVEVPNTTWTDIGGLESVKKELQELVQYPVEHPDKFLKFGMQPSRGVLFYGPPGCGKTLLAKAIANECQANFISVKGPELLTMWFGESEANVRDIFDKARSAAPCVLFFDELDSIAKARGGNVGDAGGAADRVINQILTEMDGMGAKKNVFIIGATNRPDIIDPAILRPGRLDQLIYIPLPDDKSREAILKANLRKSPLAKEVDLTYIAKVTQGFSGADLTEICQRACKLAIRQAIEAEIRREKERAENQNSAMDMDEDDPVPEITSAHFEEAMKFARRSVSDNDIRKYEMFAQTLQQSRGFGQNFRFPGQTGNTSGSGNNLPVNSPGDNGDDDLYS
UniProt E2QCH8: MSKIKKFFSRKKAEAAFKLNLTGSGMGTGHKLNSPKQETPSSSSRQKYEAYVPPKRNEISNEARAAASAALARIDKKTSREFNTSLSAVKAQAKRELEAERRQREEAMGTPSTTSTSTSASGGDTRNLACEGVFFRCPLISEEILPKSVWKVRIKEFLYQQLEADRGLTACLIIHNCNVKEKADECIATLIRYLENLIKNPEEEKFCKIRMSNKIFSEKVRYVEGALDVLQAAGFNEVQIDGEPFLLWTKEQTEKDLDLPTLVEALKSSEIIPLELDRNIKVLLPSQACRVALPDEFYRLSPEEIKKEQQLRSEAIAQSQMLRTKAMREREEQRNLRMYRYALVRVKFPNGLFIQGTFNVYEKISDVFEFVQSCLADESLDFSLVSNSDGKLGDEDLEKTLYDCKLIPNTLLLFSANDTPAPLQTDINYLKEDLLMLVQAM

Target: Ter94^HA (Drosophila) (UniProt Q7KN62)
Experiment: co-IP; Ter94^HA co-expressed with FLAG-tagged Als variants in Kc-167 cells; reciprocal immunoprecipitation with anti-FLAG or anti-HA on Protein-A Sepharose, 3 h at 4°C, lysis buffer with 200 mM NaCl and 0.5% Nonidet P-40; Western blot

binding: binds
Substance: endogenous Als (from UniProt E2QCH8)
